The values below come from paper PMC8822347, “Sustained Control of Pyruvate Carboxylase by the Essential Second Messenger Cyclic di-AMP in Bacillus subtilis” (mBio, 2022).

These are yes or no findings as the source states them, for the method shown. Binding seen in cells or lysates may run through a third protein. A yes stands for co-enrichment or nearness to the bait. Other partners may have been found.

For this test, the target named is T1, pyruvate carboxylase (PC), endogenous in B. subtilis crude extract (B. subtilis (endogenous in B. subtilis)) (UniProt Q9KWU4).
T1 sequence (chain, biotin as a cofactor): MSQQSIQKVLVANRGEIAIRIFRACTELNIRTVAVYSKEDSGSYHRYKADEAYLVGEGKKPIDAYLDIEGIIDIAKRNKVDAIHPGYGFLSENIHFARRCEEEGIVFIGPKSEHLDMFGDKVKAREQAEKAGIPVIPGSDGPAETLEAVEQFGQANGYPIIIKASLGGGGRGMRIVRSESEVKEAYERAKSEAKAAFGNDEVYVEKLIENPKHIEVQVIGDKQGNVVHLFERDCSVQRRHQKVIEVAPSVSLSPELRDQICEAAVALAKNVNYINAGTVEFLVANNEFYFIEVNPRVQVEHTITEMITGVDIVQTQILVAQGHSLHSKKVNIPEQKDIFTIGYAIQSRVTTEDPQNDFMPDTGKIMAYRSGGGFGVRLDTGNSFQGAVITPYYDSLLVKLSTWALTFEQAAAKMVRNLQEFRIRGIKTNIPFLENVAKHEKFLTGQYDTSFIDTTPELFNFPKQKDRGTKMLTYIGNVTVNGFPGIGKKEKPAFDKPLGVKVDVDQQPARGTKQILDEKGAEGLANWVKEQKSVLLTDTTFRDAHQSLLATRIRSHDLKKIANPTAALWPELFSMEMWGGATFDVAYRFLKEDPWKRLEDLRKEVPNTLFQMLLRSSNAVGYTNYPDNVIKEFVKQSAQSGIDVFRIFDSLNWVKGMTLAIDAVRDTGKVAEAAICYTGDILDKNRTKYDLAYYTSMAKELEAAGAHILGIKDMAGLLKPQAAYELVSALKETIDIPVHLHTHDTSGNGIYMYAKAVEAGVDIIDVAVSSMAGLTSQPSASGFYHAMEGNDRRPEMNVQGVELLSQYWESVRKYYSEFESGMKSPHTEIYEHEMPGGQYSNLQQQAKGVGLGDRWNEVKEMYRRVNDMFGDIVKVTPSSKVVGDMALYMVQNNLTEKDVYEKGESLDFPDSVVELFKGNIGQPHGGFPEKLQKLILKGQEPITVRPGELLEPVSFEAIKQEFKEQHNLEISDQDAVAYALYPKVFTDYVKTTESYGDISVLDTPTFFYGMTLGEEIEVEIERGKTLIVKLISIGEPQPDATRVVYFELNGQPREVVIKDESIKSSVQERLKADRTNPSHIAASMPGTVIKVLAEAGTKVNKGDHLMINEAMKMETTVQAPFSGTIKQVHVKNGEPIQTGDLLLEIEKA
Briefly: affinity purification with mass spectrometry; B. subtilis crude extract (MSSM medium, glutamate, 5 mM KCl) passed over a StrepTactin column that holds the naturally biotinylated proteins PC and AccB; eluted with 2.5 mM desthiobiotin; eluates analysed by mass spectrometry.

B1: DarB, endogenous in B. subtilis crude extract (protein, UniProt O31698 1-147)
chain: MISLQSDQLLEATVGQFMIEADKVAHVQVGNNLEHALLVLTKTGYTAIPVLDPSYRLHGLIGTNMIMNSIFGLERIEFEKLDQITVEEVMLTDIPRLHINDPIMKGFGMVINNGFVCVENDEQVFEGIFTRRVVLKELNKHIRSLNK
Consider B1, for which the binding result is reported as “binds”.
